Two substances from publication PMC12359225 can be followed below.

By UniProt entry, the sequences of proteins in these tests, tags left out. Where a name states a change or a piece, a line headed by the entry shows the natural chain unless it says otherwise.
UniProt P63330: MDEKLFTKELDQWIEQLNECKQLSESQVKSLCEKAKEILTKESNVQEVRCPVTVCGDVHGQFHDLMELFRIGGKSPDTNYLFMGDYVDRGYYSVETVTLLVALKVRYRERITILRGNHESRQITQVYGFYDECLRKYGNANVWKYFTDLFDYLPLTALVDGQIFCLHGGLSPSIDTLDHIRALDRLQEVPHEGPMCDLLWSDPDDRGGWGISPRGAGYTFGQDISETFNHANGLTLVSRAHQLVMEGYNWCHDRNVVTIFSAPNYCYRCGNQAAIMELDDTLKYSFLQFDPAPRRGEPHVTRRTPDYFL

The target in this assay is T1, CREB-regulated transcriptional coactivator 2 (mouse (endogenous in primary calvarial osteoblasts)) (UniProt Q3U182).
T1 sequence: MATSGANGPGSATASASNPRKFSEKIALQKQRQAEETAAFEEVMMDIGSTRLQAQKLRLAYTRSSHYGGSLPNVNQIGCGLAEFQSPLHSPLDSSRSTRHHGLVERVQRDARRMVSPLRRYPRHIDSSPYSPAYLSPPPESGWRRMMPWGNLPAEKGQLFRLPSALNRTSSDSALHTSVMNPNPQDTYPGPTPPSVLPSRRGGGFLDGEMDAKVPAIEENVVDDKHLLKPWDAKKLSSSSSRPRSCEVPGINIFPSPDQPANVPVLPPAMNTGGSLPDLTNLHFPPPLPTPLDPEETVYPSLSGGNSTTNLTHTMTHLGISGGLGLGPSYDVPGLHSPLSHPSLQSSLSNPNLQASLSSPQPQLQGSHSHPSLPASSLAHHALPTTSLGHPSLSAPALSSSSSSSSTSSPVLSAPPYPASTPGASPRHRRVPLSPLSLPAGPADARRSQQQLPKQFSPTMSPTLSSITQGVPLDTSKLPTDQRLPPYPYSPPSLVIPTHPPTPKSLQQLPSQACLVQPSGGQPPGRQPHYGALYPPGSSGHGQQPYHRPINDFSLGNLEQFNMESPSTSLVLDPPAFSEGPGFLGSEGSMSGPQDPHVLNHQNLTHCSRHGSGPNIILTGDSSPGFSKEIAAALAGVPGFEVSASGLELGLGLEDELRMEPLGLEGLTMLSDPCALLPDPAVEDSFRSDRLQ
Kind of assay: co-IP; endogenous proteins; lysates of mature primary mouse calvarial osteoblasts, basal or treated with 10 nM PTH (1-34) for 15 min; lysis buffer 0.5% Nonidet P-40, 50 mM Tris pH 8.0, 150 mM NaCl, 1 mM EDTA; antibody and protein AG-agarose overnight at 4 °C; immunoblot.

These are yes or no findings as the source states them, for the method shown. In cells and extracts the contact can be indirect. Binding calls can cover weak binding; strength is not graded here.

On to protein phosphatase 1 (enzyme), for which the binding result was “binds”.
The value for “protein phosphatase 2 (from UniProt P63330) (enzyme)” was “binds”.
